Source: the supplement of paper PMC5393889
Some of the results follow.

Test system: Caenorhabditis elegans N2
Assay: aldicarb interaction hit call (worm growth perturbed in combination with 10 uM aldicarb in both replicates, no effect as single agent) (binary (1 = interacts)); higher = interacts with aldicarb (growth perturbed)
Details: first compound 1.5 µM; aldicarb concentration 10 µM; 6 days; 20 °C

Fc1ccc(-c2noc(-c3ccco3)n2)cc1 [wact-165] + CNC(=O)O/N=C/C(C)(C)SC [aldicarb]
aldicarb interaction hit call: inactive: 0

Cc1oc(-c2ccc(-c3ccccc3)cc2)nc1CN(C)C(C)C [wact-337] + CNC(=O)O/N=C/C(C)(C)SC [aldicarb]
aldicarb interaction hit call: inactive: 0

C#CCSc1nc2ccccc2n1C(=O)c1sc2ccccc2c1Cl [wact-206] + CNC(=O)O/N=C/C(C)(C)SC [aldicarb]
aldicarb interaction hit call: inactive: 0

FC(F)(F)c1nnc(-c2ccccc2)o1 [wact-619] + CNC(=O)O/N=C/C(C)(C)SC [aldicarb]
aldicarb interaction hit call: inactive: 0

COc1ccc2oc(-c3ccc(OC)c(N)c3)nc2c1 [wact-553] + CNC(=O)O/N=C/C(C)(C)SC [aldicarb]
aldicarb interaction hit call: inactive: 0

Cc1ccc(C(=O)O/N=C(\N)c2ccccc2)c(Cl)c1 [wact-484] + CNC(=O)O/N=C/C(C)(C)SC [aldicarb]
aldicarb interaction hit call: inactive: 0

COc1cc(CNCCO)ccc1OCc1ccc(Cl)cc1Cl.Cl [wact-96] + CNC(=O)O/N=C/C(C)(C)SC [aldicarb]
aldicarb interaction hit call: inactive: 0

Cn1cc(CN2CCCC(C(=O)c3ccc(-c4ccccc4)c(F)c3)C2)cn1 (stereo not drawn) [wact-340] + CNC(=O)O/N=C/C(C)(C)SC [aldicarb]
aldicarb interaction hit call: inactive: 0

O=C(NC(=S)Nc1ccc(Cl)cc1Cl)C1CC1 [wact-224] + CNC(=O)O/N=C/C(C)(C)SC [aldicarb]
aldicarb interaction hit call: active: 1

Fc1ccc(OCc2nc3ccccc3s2)cc1 [wact-15] + CNC(=O)O/N=C/C(C)(C)SC [aldicarb]
aldicarb interaction hit call: inactive: 0

c1csc(-c2noc(-c3cccs3)n2)c1 [wact-159] + CNC(=O)O/N=C/C(C)(C)SC [aldicarb]
aldicarb interaction hit call: inactive: 0

c1ccc(-c2nc3c(c(N4CCN(Cc5ccoc5)CC4)n2)CCC3)cc1 [wact-335] + CNC(=O)O/N=C/C(C)(C)SC [aldicarb]
aldicarb interaction hit call: inactive: 0

Clc1cccc(Cl)c1-c1nc(-c2ccccc2)no1 [wact-70] + CNC(=O)O/N=C/C(C)(C)SC [aldicarb]
aldicarb interaction hit call: inactive: 0

c1csc(-c2cnc3ccccc3n2)c1 [wact-21] + CNC(=O)O/N=C/C(C)(C)SC [aldicarb]
aldicarb interaction hit call: inactive: 0

C/C(=N\N=C(/C)c1cccs1)c1cccs1 [wact-18] + CNC(=O)O/N=C/C(C)(C)SC [aldicarb]
aldicarb interaction hit call: inactive: 0

Brc1ccc(OCCCCCN2CCOCC2)cc1 [wact-410] + CNC(=O)O/N=C/C(C)(C)SC [aldicarb]
aldicarb interaction hit call: inactive: 0

FC(F)(F)c1ccc(-c2noc(CN3CCN(C4CCCC4)CC3)n2)cc1 [wact-336] + CNC(=O)O/N=C/C(C)(C)SC [aldicarb]
aldicarb interaction hit call: inactive: 0

COc1ccc2c(c1)c1nc(C)sc1n2CCN1CCCCC1.Cl [wact-168] + CNC(=O)O/N=C/C(C)(C)SC [aldicarb]
aldicarb interaction hit call: inactive: 0
